The results in this text go back to US9782455 (dated 2017).

A short description of series [1]: Fmoc solid-phase peptide synthesis; H-Gly-2-chlorotrityl-polystyene polymer support (tetrapeptide fragment). The note with it: whole synthesis, scale of the general procedure 1 mmol (tetrapeptide fragment).
The nature of series [2]: general procedure: Fmoc solid-phase peptide synthesis; H-Gly-2-chlorotrityl-polystyene polymer support (tetrapeptide fragment). The following applies: whole synthesis, scale of the general procedure 1 mmol (tetrapeptide fragment), run 3.

For the substance “H-His-Gly-Asp-Gly-Ser-Phe-Ser-Asp-Glu-Met-Asn-Thr-Ile-Leu-Asp-Asn-Leu-Ala-Ala-Arg-Asp-Phe-Ile-Asn-Trp-Leu-Ile-Gln-Thr-Lys-Ile-Thr-Asp-OH”, the “crude HPLC purity” value in series [1] (run 1) was 52%; in series [1] (run 2), 39%; in series [2], 59%.
